Measurements taken from patent US7521535B2 (priority 2006, dated 2009).
Where a sequence shows no end group, the ends are not given.

Test: peptide made by a vendor
Conditions: whole synthesis, RP-HPLC

Sequence: LRVRRTLQCSCRRVCRNTCSCIRLSRSTYAS
- final HPLC purity: >95%
